Test results from publication doi:10.1101/2022.10.26.513826.
These are yes or no findings as the source states them, for the method shown. Some results given as binding are weak or reduced against the parent protein; the word gives no strength.

Molecular target: HEAT SHOCK …ON FACTOR A7b (HSFA7b) (Arabidopsis thaliana) (UniProt Q9M1V5)
Experiment: two-hybrid

B1: HEAT SHOCK …ON FACTOR A7b (HSFA7b) (protein, UniProt Q9M1V5 1-282)
chain: MDPSSSSRARSMPPPVPMEGLQEAGPSPFLTKTFEMVGDPNTNHIVSWNRGGISFVVWDPHSFSATILPLYFKHNNFSSFVRQLNTYGFRKIEAERWEFMNEGFLMGQRDLLKSIKRRTSSSSPPSLNYSQSQPEAHDPGVELPQLREERHVLMMEISTLRQEEQRARGYVQAMEQRINGAEKKQRHMMSFLRRAVENPSLLQQIFEQKRDREEAAMIDQAGLIKMEEVEHLSELEALALEMQGYGRQRTDGVERELDDGFWEELLMNNENSDEEEANVKQD
- binding: binds
